Measured values reported in PubChem BioAssay (NCATS).
The shares of active, inactive and inconclusive entries below differ from those in the screen. Potencies beside an inconclusive call are fits to weak or partial responses and may not hold up. Calls of active or inactive are those of the source. Calls come from the whole dose curve; as a rule, active = well fitted cell-killing curve with a large enough effect; inconclusive = small, poorly fitted or top-dose-only effect, or effect the other way; inactive = no such curve, though single readings can be large or run the other way. Residues, ends and D or L forms follow the SMILES beside them.

test: Quantitative High-Throughput drug screen in 47 multiple myeloma cell lines against the NCATS MIPE library collection: UTMC2_PLB cell viability assay (AID 1919868); conditions: CellTiter-Glo ATP luminescence, 48 h; viability (% of DMSO control): at 45.8 µM (top of the series); note: nearly all actives have a fitted effect of over 55% in size
Description: PI: Beverly A. Mock Ph.D.
Laboratory of Cancer Biology and Genetics,
Center for Cancer Research, National Cancer Institute,
National Institute of Health, Bethesda, Maryland
Drug resistance and disease progression are common in multiple myeloma (MM) patients, underscoring the need for new therapeutic combinations. […] We hypothesized that effective combinations would reduce MYC expression and enhance p16 activity. […] These preclinical data identify potentially useful drug combinations for evaluation in drug-resistant MM and reveal potential mechanisms of combined drug sensitivity.
Described herein is the primary MIPE qHTS used to cherrypick compounds. Validated compounds were then further tested for potential synergistic activiy.
[1] Peat TJ, Gaikwad SM, Dubois W, Gyabaah-Kessie N, Zhang S, Gorjifard S, Phyo Z, Andres M, Hughitt VK, Simpson RM, Miller MA, Girvin AT, Taylor A, Williams D, D'Antonio N, Zhang Y, Rajagopalan A, Flietner E, Wilson K, Zhang X, Shinn P, Klumpp-Thomas C, McKnight C, Itkin Z, Chen L, Kazandijian D, Zhang J, Michalowski AM, Simmons JK, Keats J, Thomas CJ, Mock BA. Drug combinations identified by high-throughput screening promote cell cycle transition and upregulate Smad pathways in myeloma. Cancer Lett. 2023 Aug 1;568:216284. doi: 10.1016/j.canlet.2023.216284. Epub 2023 Jun 24. PMID: 37356470; PMCID: PMC10408729.
SEQUENCE No. (e.g., 1, 2, 3, etc.); […] (e.g., Cells, Incubation, Reagent, etc.); VALUE and DESCRIPTION.
1; Cells; 5 uL; white, solid bottom 1536-well Greiner assay plate.
2; Compounds; 23 nL; Kalypsis pin tool (Wako USA) equipped with a 1536-well pin head to transfer to the assay plates.
3; Incubation; 48 hours; 37C incubation.
4; Reagent;5uL; CellTiter Glo (Promega).
5; Detector; 425V; Luminescence; Viewlux PerkinElmer.
NOTES (numbers refer to Sequence numbers above)
1. The cell-based screening methods employed in this study were like those previously published. Briefly, the corresponding myeloma cell lines were screened in 1,536-well plates with 500 cells, 5-uL per well for inhibition of cell viability (assessed by measuring ATP levels with CellTiterGlo).
2. NCATS MIPE 4.0 library of approved and investigational drugs were added using the Kalypsis pin tool. Wells treated with DMSO only for 100% viability and media only for 0% viability were used as controls.
3. The assay plates were covered and incubated for 48 hours in a 37C, 5% CO2 incubator with controlled humidity.
4. After 48 hours, CellTilter-GloTM luminescent substrate mix (Promega) reagent was added to the assay plate and plates we incubated for 5 min at room temperature.
5. Signal was measured as median relative luminescence units on a ViewLux (PerkinElmer) multiplate reader.
[1] Heske CM, Davis MI, Baumgart JT, Wilson K, Gormally MV, Chen L, Zhang X, Ceribelli M, Duveau DY, Guha R, Ferrer M, Arnaldez FI, Ji J, Tran HL, Zhang Y, Mendoza A, Helman LJ, Thomas CJ. Matrix Screen Identifies Synergistic Combination of PARP Inhibitors and Nicotinamide Phosphoribosyltransferase (NAMPT) Inhibitors in Ewing Sarcoma. Clin Cancer Res. 2017 Dec 1;23(23):7301-7311. doi: 10.1158/1078-0432.CCR-17-1121. Epub 2017 Sep 12. PMID: 28899971; PMCID: PMC6636827.
Potency is the fitted concentration of half-maximal effect.

Compound	Potency	viability (% of DMSO control)
COc1ccc2c(Oc3ccc(NC(=O)c4c(C)n(CC(C)(C)O)n(-c5ccccc5)c4=O)nc3)ccnc2c1	inconclusive: 0.0047 µM [rising, full curve, poor fit]	
Nc1ncnc2c1nc(Cl)n2[C@@H]1O[C@H](CO)[C@@H](O)[C@@H]1O	inconclusive: 7.43 µM [cytotoxic, full curve, poor fit]	
C=C(C)[C@@H]1CC[C@]2(C)CC[C@]3(C)[C@H](CC[C@@H]4[C@@]5(C)CC[C@H](O)C(C)(C)[C@H]5CC[C@]43C)[C@@H]12		inactive: 135%
CNC(=O)c1ccc2cc(C3(O)CCn4cncc43)ccc2c1 (stereo not given)	inconclusive: 0.0187 µM [rising, full curve, poor fit]	
N#Cc1cc(NC(=O)Nc2nnc(-c3ccncc3)s2)ccc1-c1cn[nH]c1	inconclusive: 3.72 µM [rising, partial curve, poor fit]	
Cn1c(=O)c2[nH]cnc2n(C)c1=O	inconclusive: 0.0148 µM [rising, full curve, poor fit]	
COc1cc(C(C)=O)ccc1OCCCN1CCC(c2noc3cc(F)ccc23)CC1	inconclusive: 20.9 µM [cytotoxic, partial curve, poor fit]	
C[C@]12CC[C@@H]3c4ccc(O)cc4C[C@@H](CCCCCCCCCS(=O)CCCC(F)(F)C(F)(F)F)[C@H]3[C@H]1CC[C@H]2O (stereo not given in full)		inactive: 159%
O=C(O)c1ccc(-c2cc3cccnc3c(-c3ccc4nonc4c3)n2)cc1	inconclusive: 26.4 µM [cytotoxic, partial curve, poor fit]	
CC(C)(Cc1ccc2ccccc2c1)NC[C@@H](O)COc1cccc(Cl)c1C#N		inactive: 167%
Clc1ccc(C(Cn2ccnc2)OCc2c(Cl)cccc2Cl)c(Cl)c1 (stereo not given)	inconclusive: 29.6 µM [cytotoxic, single point]	
CN[C@@H]1[C@@H](O)[C@@H](O[C@@H]2[C@@H](O)[C@H](O[C@H]3O[C@H](CN)[C@@H](O)[C@H](O)[C@@H]3O)[C@@H](N)C[C@@H]2NC(=O)[C@@H](O)CN)OC[C@]1(C)O	inconclusive: 0.001 µM [cytotoxic]	
CN(CCOc1ccc(NS(C)(=O)=O)cc1)CCc1ccc(NS(C)(=O)=O)cc1	inconclusive: 0.0026 µM [rising, full curve, poor fit]	
COc1nc(-c2ccc3c(c2)OCO3)n(-c2ccc(NC(=O)CSc3ccccc3)cc2)n1	inconclusive: 10.5 µM [cytotoxic, full curve, poor fit]	
CN1CCN2c3ncccc3Cc3ccccc3C2C1 (stereo not given)		inactive: 133%
COc1ccc2cc(-c3nc(-c4ccc(S(C)=O)cc4)[nH]c3-c3ccncc3)ccc2c1 (stereo not given)	inconclusive: 29.6 µM [cytotoxic, partial curve, poor fit]	
CCCCCCCCCCCC1=C(O)C(=O)C=C(O)C1=O	inconclusive: 3.72 µM [cytotoxic, full curve, poor fit]	
c1coc(CNc2ncnc3nc[nH]c23)c1		inactive: 124%
NC(=O)c1cnc(-c2ccc(C3(N)CCC3)cc2)c(-c2ccccc2)c1	inconclusive: 16.6 µM [cytotoxic, partial curve, poor fit]	
CC(=O)OCC(=O)[C@@]1(O)CC[C@H]2[C@@H]3CCC4=CC(=O)C=C[C@]4(C)[C@@H]3[C@@H](O)C[C@@]21C	inconclusive: 33.2 µM [cytotoxic, partial curve, poor fit]	

Compound	Potency	viability (% of DMSO control)
COC(c1ccccc1)(c1ccccc1)[C@H](Oc1nc(C)cc(C)n1)C(=O)O		inactive: 184%
COc1cc2c(cc1Cc1cccc(Cl)c1F)c(=O)c(C(=O)O)cn2[C@H](CO)C(C)C	inconclusive: 18.7 µM [cytotoxic, partial curve, poor fit]	
CCn1cc(C(=O)O)c(=O)c2ccc(C)nc21	inconclusive: 0.0418 µM [cytotoxic, full curve, poor fit]	
CN(C)Cc1ccc(-c2nc3cccc4c3n2CCNC4=O)cc1	inconclusive: 37.2 µM [cytotoxic, partial curve, poor fit]	
CCC(=O)OCC(=O)[C@@]1(OC(=O)CC)[C@@H](C)C[C@@H]2[C@H]3CCC4=CC(=O)C=C[C@]4(C)[C@@]3(F)[C@@H](O)C[C@@]21C	inconclusive: 37.2 µM [cytotoxic, single point]	
COc1cc(NC(=O)c2ccc(-c3ccc(Cl)cc3)o2)cc(OC)c1	active: 10.5 µM	
COC(=O)[C@H](Cc1ccccc1)NC(=O)[C@@H](N)CC(=O)O (H-Asp-Phe-OMe)	inconclusive: 0.0332 µM [cytotoxic, full curve, poor fit]	
Cn1c2cc(S(C)=O)sc2c2cnn(Cc3cccc(N)c3)c(=O)c21 (stereo not given)	inconclusive: 0.0053 µM [cytotoxic, full curve, poor fit]	
O=c1cc(-c2cccc3c2Sc2ccccc2S3)oc(N2CCOCC2)c1	inconclusive: 11.8 µM [cytotoxic, partial curve, poor fit]	
N[C@H]1CN(c2c(F)cc3c(=O)c(C(=O)O)cn(C4C[C@@H]4F)c3c2Cl)CC12CC2 (stereo not given in full)	inconclusive: 0.743 µM [cytotoxic, partial curve, poor fit]	
N=C1SC(=Cc2ccc(-c3ccc4c(c3)C(=O)NC4=O)o2)C(=O)N1c1ccc(Br)cc1	inconclusive: 0.0037 µM [rising, full curve, poor fit]	
NCCCCCC(=O)O		inactive: 151%
C[C@]12CCC3c4ccc(O)cc4CCC3C1CCC2=O (stereo not given in full)	inconclusive: 1.66 µM [rising, partial curve, poor fit]	
S=c1nc[nH]c2nc[nH]c12	active: 14.8 µM	
C[C@@]1(C(=O)Nc2ccc(F)nc2)CCCN1c1nc(Nc2cc(C3CC3)[nH]n2)c2cccn2n1	active: 0.0118 µM	
CN(C[C@@H]1COCCO1)S(=O)(=O)Nc1ccc2ccc3ncc(-c4cnn(C)c4)cc3c(=O)c2c1	active: 3.32 µM	
O=c1cc(-c2ccc(O)c(O)c2)oc2cc(O)cc(O)c12	inconclusive: 0.332 µM [rising, full curve]	
COc1cc2ncnc(-n3nc(-c4ccccn4)nc3N)c2cc1OC	active: 3.32 µM	
CC1(C)C(=O)N(CCN2CCC(C(=O)c3ccc(F)cc3)CC2)c2ccccc21	inconclusive: 0.0017 µM [cytotoxic, full curve, poor fit]	
CC1(C)[C@H](O[C@H]2O[C@H](C(=O)O)[C@@H](O)[C@H](O)[C@H]2O[C@@H]2O[C@H](C(=O)O)[C@@H](O)[C@H](O)[C@H]2O)CC[C@@]2(C)[C@H]1CC[C@]1(C)[C@H]2C(=O)C=C2[C@H]3C[C@@](C)(C(=O)O)CC[C@]3(C)CC[C@]21C	inconclusive: 3.32 µM [rising, full curve, poor fit]	

Gathered by group: those above containing a cyano group.
Compound	Potency	viability (% of DMSO control)
N#Cc1cc(NC(=O)Nc2nnc(-c3ccncc3)s2)ccc1-c1cn[nH]c1	inconclusive: 3.72 µM [rising, partial curve, poor fit]	
CC(C)(Cc1ccc2ccccc2c1)NC[C@@H](O)COc1cccc(Cl)c1C#N		inactive: 167%
